Source: PubChem BioAssay AID912 (NCATS, 2007).

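Uptake of anthrax lethal toxin into cultured cells, read by FRET (460/530 nm ratio) and reported from the 460 nm channel; the cell line is not named here. Each compound was tested as a concentration series from about 0.0005 to 40 µM. The number is the fitted AC50 of the 460 nm signal alone; lower values mean a more potent effect. A falling signal goes with compounds filed as inhibitors or cytotoxic, a rising one with activators or fluorescent compounds (inferred from the filed classes).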

Values are in µM. Common to all entries: measured here: 460 nm channel. Part of the compounds only, not a random draw; the main read-out is not listed here. Potencies fitted to partial, single-point or poorly fitting curves are rough. The first word of each remark tells which way the curve ran; it can be opposite to the aim of the assay.

compound,AC50 (µM),remark
CCNc1ncc2nc(-c3ccccc3)c(=O)n(CCc3ccccc3)c2n1,5.012,"rising, partial curve"
CCNc1ncc2nc(-c3ccc(F)cc3)c(=O)n(-c3ccccc3)c2n1,12.59,"rising, partial curve"
CC(C)N1CCC2(CC1)N=C(c1ccc3c(c1)OCO3)CC(c1cc(Cl)ccc1O)N2 (stereo unspecified),19.95,"falling, single point"
Cc1ccnc(N2C(=O)c3ccccc3C2Nc2ccc3c(c2)OCCO3)c1 (stereo unspecified),1.259,"rising, full curve"
CCOC(=O)N1CCC(NC(=O)CCc2cn(C)c3ccccc23)CC1,0.03981,"falling, full curve, poor fit"
CCN[C@@H]1C[C@H](C)S(=O)(=O)c2sc(S(N)(=O)=O)cc21,0.03162,"rising, full curve, poor fit"
CN1[C@@H]2CC[C@H]1CC(OC1c3ccccc3CCc3ccccc31)C2 (stereo partly specified),10,"falling, partial curve"
O=C(Nc1n[nH]c(C2CCCCC2)n1)C1CCCCC1,0.1259,"rising, single point"
[N-]=[N+]=CC(=O)COC(=O)c1ccccc1,2.512,"rising, single point"
CCNc1sc(C(=O)c2cccs2)c(N)c1-c1nc2ccccc2s1,10,"falling, partial curve"
O=C(Nc1ccon1)C(Sc1ccccc1)c1ccccc1 (stereo unspecified),3.981,"rising, single point"
COC(=O)c1ccccc1NC(=O)Nc1nnc(N2CCCCC2C)s1 (stereo unspecified),1.259,"falling, full curve"
CN1CCC[C@@H]1c1cccnc1.O=C(O)c1ccccc1O.O=C([OH2+])c1ccccc1O.O=C([OH2+])c1ccccc1O.[Mn],0.0007943,"falling, full curve"
N=C(N)c1c(O)n(C2CCCCC2)c(=O)n(C2CCCCC2)c1=O,3.162,"falling, partial curve"
CCN(CC)CC(=O)Nc1ccc(-c2nc3cc(NC(=O)CN(CC)CC)ccc3o2)cc1,2.512,"falling, partial curve, poor fit"
COC(=O)c1cnn2c(C(F)(F)F)cc(-c3ccc(F)cc3)nc12,5.012,"rising, single point"
Cc1ccc(NC(=O)COC(=O)c2ccc3c(c2)NC(=O)C2CCCN32)cc1C (stereo unspecified),10,"falling, single point"
Oc1ccccc1NCC(O)Cn1ccc2ccccc21 (stereo unspecified),10,"falling, single point"
CC(C)[C@@]1(NC(=O)[C@@H]2C[C@H]3c4cccc5[nH]cc(c45)C[C@@H]3N(C)C2)O[C@@]2(O)[C@H]3CCCN3C(=O)[C@H](Cc3ccccc3)N2C1=O,0.001585,"rising, full curve, poor fit"
CCc1ccc(NC(=O)c2cc(C)on2)cc1,7.943,"falling, partial curve"
Cc1c(OCc2nn[nH]n2)ccc2c3c(c(=O)oc12)CCC(C)C3 (stereo unspecified),10,"rising, partial curve"
c1ccc(-c2ccc(-c3nc(-c4ccccn4)no3)cc2)cc1,3.981,"falling, partial curve"
O=C(Nc1cccc(-c2nnc(-c3ccccc3)o2)c1)c1ccc(Br)o1,12.59,"falling, partial curve"
CCCCCCCCCCCCCCCC(=O)NC[C@@H](COP(=O)([O-])OCC[N+](C)(C)C)OCC,25.12,"falling, partial curve"
CCn1c(C)cc2c(c1=O)C(c1ccncc1)C(C#N)=C(N)O2 (stereo unspecified),0.00631,"falling, full curve, poor fit"
CCC(c1nnnn1Cc1cccs1)N1CCN(c2nc3ccccc3s2)CC1 (stereo unspecified),12.59,"falling, single point"
Cc1cccc(CN(C)C)c1OC(=O)N(C)C,1.259,"falling, single point"
COc1ccc(Br)cc1C(=O)Nc1nnn(C)n1,5.012,"rising, single point"
CS(=O)c1ccc(-c2nc(-c3ccc(F)cc3)c(-c3ccncc3)[nH]2)cc1 (stereo unspecified),12.59,"falling, single point"
CCC1(c2ccc(F)cc2)NC(=O)N(CC(=O)N2CCOCC2)C1=O (stereo unspecified),5.012,"rising, single point"
CCCS(=O)(=O)N1CCN(C(=O)c2cc(OC)cc(OC)c2)CC1,5.012,"rising, single point"

Once more, the final 4:

{"compound": "COc1ccc(Br)cc1C(=O)Nc1nnn(C)n1", "AC50 (µM)": "5.012", "remark": "rising, single point"}
{"compound": "CS(=O)c1ccc(-c2nc(-c3ccc(F)cc3)c(-c3ccncc3)[nH]2)cc1", "stereo": "stereo unspecified", "AC50 (µM)": "12.59", "remark": "falling, single point"}
{"compound": "CCC1(c2ccc(F)cc2)NC(=O)N(CC(=O)N2CCOCC2)C1=O", "stereo": "stereo unspecified", "AC50 (µM)": "5.012", "remark": "rising, single point"}
{"compound": "CCCS(=O)(=O)N1CCN(C(=O)c2cc(OC)cc(OC)c2)CC1", "AC50 (µM)": "5.012", "remark": "rising, single point"}